Reference: PMC8241994
For at least one entry, the source does not settle the construct or the ends of the probe. At least one result comes from cells or an extract, where the contact may be indirect. No signal at the amounts used counts as a negative. Tags and fusion partners may be left off the protein sequences shown.

Legend:
[1] = target: T1, TUT7 wild-type (Flag-tagged, immunopurified) (UniProt Q5VYS8); experiment: EMSA; conditions: 75 fmol RNA with immunopurified TUT7, 37 °C, 30 min, salt and pH not stated, native PAGE (6% in Methods, 10% in legend), protein in a lysate after overexpression, protein details: N-terminal Flag
T1 sequence (looked up, limits assumed): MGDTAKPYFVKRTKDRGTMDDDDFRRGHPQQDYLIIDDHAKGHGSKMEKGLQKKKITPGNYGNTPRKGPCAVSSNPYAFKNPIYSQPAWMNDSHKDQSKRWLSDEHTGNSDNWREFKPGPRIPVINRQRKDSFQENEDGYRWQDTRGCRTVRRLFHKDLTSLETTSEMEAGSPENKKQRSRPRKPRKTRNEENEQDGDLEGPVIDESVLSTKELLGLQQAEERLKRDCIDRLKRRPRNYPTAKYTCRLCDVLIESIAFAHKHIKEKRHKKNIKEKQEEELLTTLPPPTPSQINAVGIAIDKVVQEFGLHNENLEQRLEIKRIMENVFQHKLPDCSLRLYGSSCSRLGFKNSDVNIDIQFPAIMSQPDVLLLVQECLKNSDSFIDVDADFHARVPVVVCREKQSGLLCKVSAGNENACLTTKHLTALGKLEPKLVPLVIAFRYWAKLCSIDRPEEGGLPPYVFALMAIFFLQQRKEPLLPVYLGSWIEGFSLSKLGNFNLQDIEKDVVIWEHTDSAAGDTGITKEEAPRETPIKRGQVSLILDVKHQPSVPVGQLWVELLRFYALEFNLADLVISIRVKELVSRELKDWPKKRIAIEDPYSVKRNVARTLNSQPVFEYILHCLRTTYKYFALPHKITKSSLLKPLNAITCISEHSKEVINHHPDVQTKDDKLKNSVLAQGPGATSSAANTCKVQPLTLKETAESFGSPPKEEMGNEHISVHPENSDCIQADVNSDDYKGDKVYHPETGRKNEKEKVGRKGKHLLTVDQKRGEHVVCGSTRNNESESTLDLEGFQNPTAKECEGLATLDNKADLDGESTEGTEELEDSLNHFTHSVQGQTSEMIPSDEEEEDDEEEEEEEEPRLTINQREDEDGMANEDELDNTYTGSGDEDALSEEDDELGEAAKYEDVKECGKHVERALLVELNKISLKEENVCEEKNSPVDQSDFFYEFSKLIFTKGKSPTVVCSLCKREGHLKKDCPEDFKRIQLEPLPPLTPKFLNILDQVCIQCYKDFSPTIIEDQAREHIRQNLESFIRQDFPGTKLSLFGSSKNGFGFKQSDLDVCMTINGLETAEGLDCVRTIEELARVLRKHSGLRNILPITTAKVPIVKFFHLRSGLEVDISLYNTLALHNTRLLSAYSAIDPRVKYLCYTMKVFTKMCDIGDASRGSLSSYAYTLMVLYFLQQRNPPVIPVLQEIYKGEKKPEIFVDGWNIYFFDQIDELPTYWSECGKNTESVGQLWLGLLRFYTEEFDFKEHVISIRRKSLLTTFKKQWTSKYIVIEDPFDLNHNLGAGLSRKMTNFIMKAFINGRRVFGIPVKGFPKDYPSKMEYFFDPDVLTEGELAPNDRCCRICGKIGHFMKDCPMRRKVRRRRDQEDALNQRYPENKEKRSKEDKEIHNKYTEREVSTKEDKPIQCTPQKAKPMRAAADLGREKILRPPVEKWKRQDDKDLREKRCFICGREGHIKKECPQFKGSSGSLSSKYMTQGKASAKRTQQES

[2] = target: T1, TUT7 wild-type (Flag-tagged, immunopurified); experiment: competition with a labelled probe; conditions: 1x or 5x unlabeled RNA vs Cy3 probe N2; 75 fmol RNA with immunopurified TUT7, 37 °C, 30 min; salt and pH not stated; native PAGE (6% in Methods, 10% in legend); protein in a lysate after overexpression; protein details: N-terminal Flag

| Sequence | binding result ([1]; SYBR Green II) | binding result [2] | binding result ([1]; Cy3 fluorescence, label: 5' Cy3) |
| --- | --- | --- | --- |
| AAUAUAUCCUGUUGUCAGGUAUCUGACUUAUGUUGUUCUCUACGAAGAACUGACAAUAUG [Il6 stem-loop wild-type] | no binding |  |  |
| ACAGGUCAGAAGUGAUCACCCUGUUGAUACACAUUCAUUCUCUGUCAUUU [Zc3h12a stem-loop St2m] | no binding | no binding |  |
| ACAGGUCAGAAGUGAUCACCCUGUUGAUACACAUUGUAUCUCUGUCAUUU [Cy3-Zc3h12a stem-loop wild-type] |  |  | binds |
| ACAGGUCAGAAGUGAUCACCCUGUUGAAUGACAUUGUAUCUCUGUCAUUU [Zc3h12a stem-loop St1m] | no binding | no binding |  |
| ACAGGUCAGAAGUGAUCACCCUGUUGAUACACAUUGUAUCUCUGUCAUUU [Zc3h12a stem-loop wild-type] | binds | binds |  |
| ACAGGUCAGAAGUGAUCACCCUGUUGAAUGACAUUCAUUCUCUGUCAUUU [Zc3h12a stem-loop St(1+2)m] |  | binds |  |
